Results from the supplement of paper PMC8288183.
± gives the standard deviation of the averaged measurements. The list shows a part of the results. Repeats are few or missing, and single values can be far off.

Target: T1, NSUN6 (UniProt Q8TEA1)
T1 sequence: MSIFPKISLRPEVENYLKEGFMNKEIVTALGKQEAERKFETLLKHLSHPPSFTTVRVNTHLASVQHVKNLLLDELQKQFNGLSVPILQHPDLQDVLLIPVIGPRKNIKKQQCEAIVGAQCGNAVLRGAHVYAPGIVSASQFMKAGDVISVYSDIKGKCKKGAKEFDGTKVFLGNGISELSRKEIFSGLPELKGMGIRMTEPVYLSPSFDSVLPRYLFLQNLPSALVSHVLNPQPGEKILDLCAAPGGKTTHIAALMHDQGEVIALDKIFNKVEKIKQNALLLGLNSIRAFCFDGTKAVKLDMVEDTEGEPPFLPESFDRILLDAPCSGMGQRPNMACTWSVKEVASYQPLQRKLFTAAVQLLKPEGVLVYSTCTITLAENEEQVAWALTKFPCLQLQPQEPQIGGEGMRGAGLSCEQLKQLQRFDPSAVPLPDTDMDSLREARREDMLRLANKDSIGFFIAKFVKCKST
Assay: m5C methylation level at the target C (C/(C+U) bisulfite reads) (fraction); higher = more methylation by NSUN6; extreme values may be limits of the assay
Conditions: HEK293T (wild-type)
Method: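 High-throughput mutagenesis reporter. About 140 bp oligo-pool variants of four natural Type II m5C substrates (substrate #1 chr15:91425541; #2 RAB15 3'UTR chr14:65413377; #3 SULT2A1 5'UTR chr19:48389569; #4 NAAA CDS chr4:76857361) were cloned as 3'UTR elements of psiCHECK-2 luciferase and transfected into wild-type HEK293T cells. Total RNA was taken 48 h later and m5C level was measured by targeted bisulfite sequencing as C/(C+U) reads at the m5C site (one library).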

[1] = parent substrate: substrate #1 (main figure)

Sequence	m5C methylation level at the target C [1]	m5C methylation level at the target C (parent substrate: substrate #2)	m5C methylation level at the target C (parent substrate: substrate #3)	m5C methylation level at the target C (parent substrate: substrate #4)
CCCCAU	0.00501	0	0.000754	0.00062
UCGUAU	0	0.00131	0.00102	0.00434
UCUGAU	0	0.00155	0	0.000476
ACCAGA	0.00198	0.00208	0	0.00235
GCCUAU	0.000798	0.00161	0.0018	0.00322
ACGCCG	0.00117	0.00191	0.000796	0
UCCCCG	0	0.00133	0	0.000689
CCGCAA	0.00272	0.000562	0.000826	0.00158
UCAAUU	0.00232	0	0.00323	0.000573
GCUGCA	0.000895	0	0.00432	0.00129
ACUUUA	0.00133	0	0.00175	0
UCCUGC	0.000498	0	0.000696	0
ACUGUG	0	0.00223	0.00303	0
GCAUCG	0.0011	0.000788	0.00105	0
CCUCGC	0.00124	0.00448	0	0.000614
GCCGUG	0.00178	0.000724	0.00193	0
CCAGCA	0	0	0.00499	0.000646
ACGAUA	0.0019	0	0	0
CCGACA	0.000838	0	0.000495	0.0055
GCAUUA	0.00048	0.00275	0.00049	0
ACGAAA	0	0.00478	0.00488	0.0018
UCACCU	0	0.00312	0.00367	0.00142
ACUCCC	0.000509	0.00114	0	0
CCGUCC	0.000436	0	0.00087	0.000355
GCACAU	0	0	0.00144	0

Sequence	m5C methylation level at the target C [1]	m5C methylation level at the target C (parent substrate: substrate #2)	m5C methylation level at the target C (parent substrate: substrate #3)	m5C methylation level at the target C (parent substrate: substrate #4)
CCAUGA	0	0	0.000371	0
ACUGUA	0.00322	0.00189	0.0044	0.00064
GCCCUC	0.00642	0.00352	0.00397	0.00211
UCUAUA	0.00398	0	0.00217	0.00104
ACCUAG	0.00202	0.00259	0	0
GCAAUG	0	0	0.000955	0.00155
ACCAUC	0	0	0.000751	0
ACCUCG	0.00667	0.00358	0	0.00257
UCUGUC	0.000716	0.00336	0	0
ACUCUG	0.000567	0	0.000772	0.00984
CCAGUG	0.00114	0	0.00129	0.00964
CCCGCC	0.00139	0.000832	0.000632	0
CCGGCA	0.00233	0.00203	0.0012	0.00126
GCUGUC	0.005	0.000643	0.00213	0.00122
UCAAGC	0.00118	0	0	0.00138
CCAUCC	0	0.00128	0.00127	0.000582
UCUGUA	0.00147	0.00156	0.00217	0
CCAAAG	0.0152	0.0043	0.0102	0
CCGGCG	0.0016	0	0.000972	0.00771
UCAUCA	0	0.00152	0.00125	0.00107
GCCACA	0.00136	0.00271	0.00237	0.00125
CCCUGA	0.00868	0	0.00142	0
ACUUCU	0	0.00893	0.00364	0
GCUGUA	0.00116	0.00136	0.00513	0.000764
CCUGCG	0.00138	0	0.000651	0

Sequence	m5C methylation level at the target C [1]	m5C methylation level at the target C (parent substrate: substrate #2)	m5C methylation level at the target C (parent substrate: substrate #3)	m5C methylation level at the target C (parent substrate: substrate #4)
GCGUGU	0.00754	0.0136	0	0.00865
GCGAAU	0.00419	0.002	0.00168	0.00186
CCAAUA	0.000843	0.00977	0	0.0107
GCUCAC	0.00139	0	0.000442	0.00363
GCCUCG	0.00166	0.00139	0.000439	0.00595
ACAAAC	0.000664	0.000662	0	0
ACUACG	0.00106	0	0.0079	0.000706
GCCUAA	0.00151	0.00087	0.000351	0.000405
UCGUUU	0	0	0.00106	0.00145
UCCGCC	0.00134	0	0.00115	0.00412
CCGUGG	0.000889	0.0012	0.00106	0.00273
ACACGC	0.000727	0	0	0.00166
CCACCU	0	0	0.000301	0.00223
ACCGAA	0.00504	0.00152	0.00202	0
GCUGCU	0.00144	0	0.000363	0
GCUCUA	0.123	0.00187	0.0137	0.00476
GCCAUG	0.00114	0.00108	0.00105	0.000496
CCUCGG	0	0.00726	0.00225	0
UCAGGU	0	0	0	0.00061
ACUGCC	0.00263	0	0.00241	0
CCAUUG	0.00251	0	0.000436	0
ACGCGG	0	0.0036	0.00579	0.000531
CCUGAU	0.000534	0	0	0
ACGUAC	0.00369	0	0.000483	0.0022
CCUGAC	0	0	0	0.00103

Sequence	m5C methylation level at the target C [1]	m5C methylation level at the target C (parent substrate: substrate #2)	m5C methylation level at the target C (parent substrate: substrate #3)	m5C methylation level at the target C (parent substrate: substrate #4)
ACUUAU	0	0	0.00115	0.000829
UCCUUG	0.00227	0.00345	0.00113	0.000786
CCGGGC	0	0.00168	0	0
CCGCUU	0.0048	0	0.00117	0.00102
CCGCCU	0.00261	0.00109	0.000759	0.00127
CCGUUU	0	0.00123	0.000675	0.000544
CCAGCC	0	0.00289	0.00311	0.000529
CCUCAC	0.00591	0.0138	0	0.00325
UCCGCA	0.00339	0	0	0.00137
ACCGCU	0	0	0	0.00282
UCUUUG	0.00293	0	0.000509	0.000826
UCAACA	0.00559	0.00932	0	0.00187
ACCACC	0.00225	0	0.0018	0
UCGCUC	0.00299	0.000853	0	0
GCCGGA	0.00167	0.00303	0.000366	0.00744
GCCAGG	0.0098	0.00769	0.0113	0.00303
CCAAAC	0	0	0.00323	0.000671
CCUCUC	0	0	0.00105	0
ACGAUU	0	0.000887	0.00172	0.000448
ACGACG	0	0.0208	0.00115	0.000549
GCUAUG	0.000614	0.00226	0.00163	0.00271
GCUUAU	0	0.0101	0.0011	0.0026
ACUUGA	0.00125	0.00408	0	0
GCGUCG	0.00386	0	0.00278	0.00268
ACCAUU	0	0.0128	0.00149	0

Complete entries as entered above.
ACCGCU as listed: m5C methylation level at the target C [1]: 0; m5C methylation level at the target C (parent substrate: substrate #2): 0; m5C methylation level at the target C (parent substrate: substrate #3): 0; m5C methylation level at the target C (parent substrate: substrate #4): 0.00282
CCGGGC as listed: m5C methylation level at the target C [1]: 0; m5C methylation level at the target C (parent substrate: substrate #2): 0.00168; m5C methylation level at the target C (parent substrate: substrate #3): 0; m5C methylation level at the target C (parent substrate: substrate #4): 0
CCAAAC as listed: m5C methylation level at the target C [1]: 0; m5C methylation level at the target C (parent substrate: substrate #2): 0; m5C methylation level at the target C (parent substrate: substrate #3): 0.00323; m5C methylation level at the target C (parent substrate: substrate #4): 0.000671
CCAGCC as listed: m5C methylation level at the target C [1]: 0; m5C methylation level at the target C (parent substrate: substrate #2): 0.00289; m5C methylation level at the target C (parent substrate: substrate #3): 0.00311; m5C methylation level at the target C (parent substrate: substrate #4): 0.000529

Further entries follow:

Sequence	m5C methylation level at the target C [1]	m5C methylation level at the target C (parent substrate: substrate #2)	m5C methylation level at the target C (parent substrate: substrate #3)	m5C methylation level at the target C (parent substrate: substrate #4)
GCCUGA	0.00183	0	0.000415	0.00129
ACUCUU	0	0.00501	0.00231	0.00173
CCCUAC	0.00105	0.00168	0	0.00127
UCCCUG	0.00161	0.002	0.0011	0
CCGUAA	0	0.000696	0.00128	0
GCAAGU	0	0	0.000495	0.00214
CCUUUA	0	0.00275	0.00112	0.00419
GCUUCG	0.00539	0	0.000508	0
ACACUA	0.00296	0	0.00688	0.00164
UCGCAC	0	0.00218	0	0.000402
GCAGAA	0.000898	0.0155	0.00727	0
CCAUUC	0	0	0.00063	0.00929
UCAGGC	0	0.00124	0.00241	0
UCUGGU	0	0.00801	0.00304	0.00174
UCCACC	0.00175	0	0.00205	0
CCUUAC	0.00154	0	0.000986	0
GCGGUG	0.00128	0.00625	0.00122	0.00158
UCGUCU	0.00536	0	0	0
CCUCGU	0.0009	0	0	0.00186
GCACAC	0	0.00218	0.000485	0.00341
ACAUGU	0	0	0	0
CCCGAU	0	0	0	0
ACAAAA	0	0	0.000703	0
CCUAAC	0.00253	0	0	0
GCCUCA	0.000529	0	0	0.00162

Sequence	m5C methylation level at the target C [1]	m5C methylation level at the target C (parent substrate: substrate #2)	m5C methylation level at the target C (parent substrate: substrate #3)	m5C methylation level at the target C (parent substrate: substrate #4)
CCUACC	0.000897	0	0.00102	0.000679
UCGCGA	0.00117	0.000965	0.00157	0.000542
UCGGAA	0	0.00906	0.00116	0.000507
ACUUUC	0	0	0.0017	0.000651
CCGCGG	0.000925	0	0.00208	0
ACCAAC	0	0.00126	0.000418	0.00145
GCGUUU	0.00144	0.00203	0.000408	0.000686
UCCGGA	0.00221	0.00253	0.00224	0.000668
GCACCU	0.00127	0	0.00152	0.00155
UCUCGU	0	0.00134	0.00353	0.00167
CCUCUU	0	0.00406	0.00823	0
UCUCCA	0.569 ± 0.018	0.139	0.594	0.652
CCGGAA	0.0013	0.00242	0.00126	0.00211
UCGAAU	0.00447	0.00219	0.00116	0.00125
UCCUGA	0.000466	0	0.000905	0
ACUAGC	0.00509	0.00105	0.000581	0.00385
CCAUGG	0.0093	0.00119	0.000598	0
GCAUCU	0.00421	0	0.00248	0
GCAACU	0	0	0.000528	0.000482
UCAUAA	0	0	0	0.00125
